The assay has as its target OPTN, Flag-tagged, overexpressed (UniProt Q96CV9). As to the kind of experiment: affinity purification with mass spectrometry; OPTN overexpressed in HEK293 cells, Co-IP, mass spectrometry; combined with quantitative proteomics of SL-treated LN-229 cells to pick the top ten candidates.

Amino acid sequences for entries named in this document (tags omitted).
UniProt Q96CV9: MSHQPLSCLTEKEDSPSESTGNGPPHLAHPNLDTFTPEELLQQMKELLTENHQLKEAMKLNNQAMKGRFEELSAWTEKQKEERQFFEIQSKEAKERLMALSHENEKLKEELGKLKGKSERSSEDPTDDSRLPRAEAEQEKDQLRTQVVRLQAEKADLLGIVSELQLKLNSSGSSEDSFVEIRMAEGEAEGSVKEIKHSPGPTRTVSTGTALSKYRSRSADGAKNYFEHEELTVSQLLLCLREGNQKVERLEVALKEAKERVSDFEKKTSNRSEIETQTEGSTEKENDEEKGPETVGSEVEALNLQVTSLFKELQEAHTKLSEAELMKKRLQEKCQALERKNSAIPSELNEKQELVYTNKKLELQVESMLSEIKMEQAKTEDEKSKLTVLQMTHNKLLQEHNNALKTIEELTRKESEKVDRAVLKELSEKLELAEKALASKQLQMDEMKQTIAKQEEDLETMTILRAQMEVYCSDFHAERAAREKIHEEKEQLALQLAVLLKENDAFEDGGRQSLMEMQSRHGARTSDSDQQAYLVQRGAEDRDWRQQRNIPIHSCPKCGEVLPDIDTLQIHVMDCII

The results in this text go back to paper PMC12677614.

Results are given in words; binding and its absence hold for the method and conditions named. Binding seen in cells or lysates may run through a third protein. A yes stands for co-enrichment or nearness to the bait. Other partners may have been found.

B1: MID1 in cells (protein, UniProt O15344 1-667)
chain: METLESELTCPICLELFEDPLLLPCAHSLCFNCAHRILVSHCATNESVESITAFQCPTCRHVITLSQRGLDGLKRNVTLQNIIDRFQKASVSGPNSPSETRRERAFDANTMTSAEKVLCQFCDQDPAQDAVKTCVTCEVSYCDECLKATHPNKKPFTGHRLIEPIPDSHIRGLMCLEHEDEKVNMYCVTDDQLICALCKLVGRHRDHQVAALSERYDKLKQNLESNLTNLIKRNTELETLLAKLIQTCQHVEVNASRQEAKLTEECDLLIEIIQQRRQIIGTKIKEGKVMRLRKLAQQIANCKQCIERSASLISQAEHSLKENDHARFLQTAKNITERVSMATASSQVLIPEINLNDTFDTFALDFSREKKLLECLDYLTAPNPPTIREELCTASYDTITVHWTSDDEFSVVSYELQYTIFTGQANVVSLCNSADSWMIVPNIKQNHYTVHGLQSGTKYIFMVKAINQAGSRSSEPGKLKTNSQPFKLDPKSAHRKLKVSHDNLTVERDESSSKKSHTPERFTSQGSYGVAGNVFIDSGRHYWEVVISGSTWYAIGLAYKSAPKHEWIGKNSASWALCRCNNNWVVRHNSKEIPIEPAPHLRRVGILLDYDNGSIAFYDALNSIHLYTFDVAFAQPVCPTFTVWNKCLTIITGLPIPDHLDCTEQLP
With B1, the binding entry was “binds”.
